This note sets out measurements from publication doi:10.1101/2021.07.28.454117.

Chains of the proteins cited; added tags and fusions are not shown.
UniProt P14635: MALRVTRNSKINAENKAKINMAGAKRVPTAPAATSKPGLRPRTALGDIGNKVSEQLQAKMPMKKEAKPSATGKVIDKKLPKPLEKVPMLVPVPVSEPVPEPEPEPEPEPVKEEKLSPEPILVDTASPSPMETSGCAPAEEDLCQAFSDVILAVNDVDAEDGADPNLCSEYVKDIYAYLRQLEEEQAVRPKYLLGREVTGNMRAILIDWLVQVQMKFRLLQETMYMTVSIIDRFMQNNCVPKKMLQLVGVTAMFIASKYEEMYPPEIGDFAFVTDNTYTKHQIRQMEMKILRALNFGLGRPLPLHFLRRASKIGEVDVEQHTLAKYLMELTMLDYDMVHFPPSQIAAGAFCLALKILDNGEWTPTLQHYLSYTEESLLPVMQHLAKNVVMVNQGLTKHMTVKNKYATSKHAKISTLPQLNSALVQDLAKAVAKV
UniProt Q14204: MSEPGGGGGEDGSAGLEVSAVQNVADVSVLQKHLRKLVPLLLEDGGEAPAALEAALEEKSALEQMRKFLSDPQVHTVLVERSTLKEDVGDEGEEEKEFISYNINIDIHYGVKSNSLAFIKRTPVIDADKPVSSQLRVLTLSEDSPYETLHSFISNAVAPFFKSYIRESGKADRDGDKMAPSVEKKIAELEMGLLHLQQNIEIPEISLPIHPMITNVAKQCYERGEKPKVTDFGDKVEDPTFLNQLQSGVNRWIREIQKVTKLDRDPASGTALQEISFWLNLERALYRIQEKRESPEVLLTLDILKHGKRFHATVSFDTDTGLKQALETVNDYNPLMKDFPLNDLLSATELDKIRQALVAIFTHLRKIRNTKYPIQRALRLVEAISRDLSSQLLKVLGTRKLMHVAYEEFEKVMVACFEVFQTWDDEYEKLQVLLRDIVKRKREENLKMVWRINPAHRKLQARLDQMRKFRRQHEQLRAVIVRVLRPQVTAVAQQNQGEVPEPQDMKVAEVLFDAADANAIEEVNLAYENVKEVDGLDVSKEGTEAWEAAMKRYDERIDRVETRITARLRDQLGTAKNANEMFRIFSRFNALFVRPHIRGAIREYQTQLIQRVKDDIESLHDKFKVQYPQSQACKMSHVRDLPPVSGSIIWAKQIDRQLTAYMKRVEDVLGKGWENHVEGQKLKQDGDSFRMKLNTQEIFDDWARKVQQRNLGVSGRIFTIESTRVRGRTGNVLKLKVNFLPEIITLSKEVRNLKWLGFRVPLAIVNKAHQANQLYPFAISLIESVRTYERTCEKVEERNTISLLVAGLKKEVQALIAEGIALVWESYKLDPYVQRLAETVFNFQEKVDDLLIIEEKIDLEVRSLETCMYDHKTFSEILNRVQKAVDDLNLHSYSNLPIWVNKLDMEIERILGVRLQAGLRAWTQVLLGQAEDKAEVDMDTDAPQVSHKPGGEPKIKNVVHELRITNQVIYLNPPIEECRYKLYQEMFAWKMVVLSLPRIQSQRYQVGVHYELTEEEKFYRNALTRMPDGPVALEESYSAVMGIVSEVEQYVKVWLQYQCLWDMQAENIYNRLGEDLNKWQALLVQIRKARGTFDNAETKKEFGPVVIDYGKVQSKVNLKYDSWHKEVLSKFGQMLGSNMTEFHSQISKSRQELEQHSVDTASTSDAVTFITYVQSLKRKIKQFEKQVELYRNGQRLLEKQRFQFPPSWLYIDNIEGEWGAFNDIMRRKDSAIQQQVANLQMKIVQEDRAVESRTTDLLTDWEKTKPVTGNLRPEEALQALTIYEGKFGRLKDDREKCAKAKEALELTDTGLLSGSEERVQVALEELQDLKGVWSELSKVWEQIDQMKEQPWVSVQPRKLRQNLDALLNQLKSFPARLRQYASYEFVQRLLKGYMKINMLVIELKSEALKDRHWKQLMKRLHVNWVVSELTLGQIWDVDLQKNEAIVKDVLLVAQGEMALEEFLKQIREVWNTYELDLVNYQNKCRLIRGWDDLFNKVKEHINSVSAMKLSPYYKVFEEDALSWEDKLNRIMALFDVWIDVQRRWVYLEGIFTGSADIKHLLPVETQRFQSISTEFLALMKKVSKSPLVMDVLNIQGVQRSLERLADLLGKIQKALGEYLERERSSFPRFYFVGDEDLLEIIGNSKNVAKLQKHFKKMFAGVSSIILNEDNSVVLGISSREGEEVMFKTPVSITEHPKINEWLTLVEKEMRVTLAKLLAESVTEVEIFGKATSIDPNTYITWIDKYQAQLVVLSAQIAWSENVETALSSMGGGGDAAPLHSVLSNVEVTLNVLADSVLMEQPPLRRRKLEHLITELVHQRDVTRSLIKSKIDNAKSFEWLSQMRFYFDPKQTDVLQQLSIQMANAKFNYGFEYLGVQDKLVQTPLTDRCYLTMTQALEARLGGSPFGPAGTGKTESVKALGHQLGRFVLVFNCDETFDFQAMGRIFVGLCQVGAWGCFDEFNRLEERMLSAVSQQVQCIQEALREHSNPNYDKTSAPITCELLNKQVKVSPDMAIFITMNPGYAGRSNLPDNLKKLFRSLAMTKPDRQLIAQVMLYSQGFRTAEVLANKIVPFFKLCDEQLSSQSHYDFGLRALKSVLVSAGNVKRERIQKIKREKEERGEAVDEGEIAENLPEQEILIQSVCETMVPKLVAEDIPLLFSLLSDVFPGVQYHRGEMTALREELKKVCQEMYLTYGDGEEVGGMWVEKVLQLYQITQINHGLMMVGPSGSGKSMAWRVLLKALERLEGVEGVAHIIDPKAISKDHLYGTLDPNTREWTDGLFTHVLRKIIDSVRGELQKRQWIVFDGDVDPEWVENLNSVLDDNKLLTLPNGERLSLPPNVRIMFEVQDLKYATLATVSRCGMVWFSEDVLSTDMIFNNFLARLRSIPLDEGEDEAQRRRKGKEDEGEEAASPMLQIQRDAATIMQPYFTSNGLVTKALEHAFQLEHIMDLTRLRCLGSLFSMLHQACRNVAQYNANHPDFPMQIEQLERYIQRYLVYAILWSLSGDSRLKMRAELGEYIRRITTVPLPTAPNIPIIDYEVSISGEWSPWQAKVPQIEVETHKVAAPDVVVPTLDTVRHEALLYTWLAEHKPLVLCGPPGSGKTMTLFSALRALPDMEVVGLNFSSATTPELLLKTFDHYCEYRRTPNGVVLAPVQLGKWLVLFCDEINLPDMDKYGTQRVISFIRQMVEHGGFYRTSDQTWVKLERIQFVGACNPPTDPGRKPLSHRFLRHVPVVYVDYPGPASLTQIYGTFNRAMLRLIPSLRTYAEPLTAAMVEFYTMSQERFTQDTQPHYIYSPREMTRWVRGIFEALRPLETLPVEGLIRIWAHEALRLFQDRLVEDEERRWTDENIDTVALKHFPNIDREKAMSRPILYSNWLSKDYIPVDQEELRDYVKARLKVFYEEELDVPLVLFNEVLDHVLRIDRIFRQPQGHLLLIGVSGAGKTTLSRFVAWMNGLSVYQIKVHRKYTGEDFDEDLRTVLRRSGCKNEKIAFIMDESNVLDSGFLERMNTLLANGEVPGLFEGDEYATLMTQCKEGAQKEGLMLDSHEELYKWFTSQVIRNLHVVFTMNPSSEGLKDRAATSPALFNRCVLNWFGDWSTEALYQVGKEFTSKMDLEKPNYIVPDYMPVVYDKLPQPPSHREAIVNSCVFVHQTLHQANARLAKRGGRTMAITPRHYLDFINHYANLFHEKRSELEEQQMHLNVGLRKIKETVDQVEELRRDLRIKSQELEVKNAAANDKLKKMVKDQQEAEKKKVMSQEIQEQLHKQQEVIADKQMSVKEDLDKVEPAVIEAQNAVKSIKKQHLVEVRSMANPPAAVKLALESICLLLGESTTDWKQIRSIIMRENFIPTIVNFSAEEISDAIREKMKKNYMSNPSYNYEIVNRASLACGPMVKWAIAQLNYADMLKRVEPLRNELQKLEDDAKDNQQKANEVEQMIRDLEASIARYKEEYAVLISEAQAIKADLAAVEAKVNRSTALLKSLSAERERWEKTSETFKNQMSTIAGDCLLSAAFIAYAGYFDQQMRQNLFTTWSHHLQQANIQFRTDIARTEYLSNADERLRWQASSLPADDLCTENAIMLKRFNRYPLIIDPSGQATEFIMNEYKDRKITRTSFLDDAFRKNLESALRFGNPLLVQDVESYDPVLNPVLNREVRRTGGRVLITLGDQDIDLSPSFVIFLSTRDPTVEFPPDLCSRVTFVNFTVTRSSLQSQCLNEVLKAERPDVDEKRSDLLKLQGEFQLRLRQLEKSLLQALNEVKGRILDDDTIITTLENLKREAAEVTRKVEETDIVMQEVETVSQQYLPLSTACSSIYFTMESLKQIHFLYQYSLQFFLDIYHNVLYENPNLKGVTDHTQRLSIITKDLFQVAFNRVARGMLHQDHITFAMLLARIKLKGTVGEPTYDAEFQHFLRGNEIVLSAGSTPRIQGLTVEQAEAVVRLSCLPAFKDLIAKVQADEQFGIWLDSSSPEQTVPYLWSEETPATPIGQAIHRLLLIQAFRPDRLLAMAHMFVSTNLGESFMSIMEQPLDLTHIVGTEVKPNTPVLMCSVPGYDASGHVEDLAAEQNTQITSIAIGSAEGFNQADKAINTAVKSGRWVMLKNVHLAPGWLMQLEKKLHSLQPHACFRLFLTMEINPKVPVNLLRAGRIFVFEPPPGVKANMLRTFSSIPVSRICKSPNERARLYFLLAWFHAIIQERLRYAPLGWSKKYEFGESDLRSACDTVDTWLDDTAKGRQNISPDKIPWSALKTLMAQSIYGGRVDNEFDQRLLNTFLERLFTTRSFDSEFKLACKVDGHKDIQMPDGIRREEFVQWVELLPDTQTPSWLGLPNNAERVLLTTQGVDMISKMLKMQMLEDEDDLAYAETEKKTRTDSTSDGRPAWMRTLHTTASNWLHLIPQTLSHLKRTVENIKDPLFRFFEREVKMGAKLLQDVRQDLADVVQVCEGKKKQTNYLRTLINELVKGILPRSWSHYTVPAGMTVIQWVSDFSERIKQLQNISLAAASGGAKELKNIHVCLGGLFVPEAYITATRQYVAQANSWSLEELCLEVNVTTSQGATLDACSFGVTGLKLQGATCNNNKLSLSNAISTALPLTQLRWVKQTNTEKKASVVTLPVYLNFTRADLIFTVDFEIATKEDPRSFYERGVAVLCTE
UniProt P60228: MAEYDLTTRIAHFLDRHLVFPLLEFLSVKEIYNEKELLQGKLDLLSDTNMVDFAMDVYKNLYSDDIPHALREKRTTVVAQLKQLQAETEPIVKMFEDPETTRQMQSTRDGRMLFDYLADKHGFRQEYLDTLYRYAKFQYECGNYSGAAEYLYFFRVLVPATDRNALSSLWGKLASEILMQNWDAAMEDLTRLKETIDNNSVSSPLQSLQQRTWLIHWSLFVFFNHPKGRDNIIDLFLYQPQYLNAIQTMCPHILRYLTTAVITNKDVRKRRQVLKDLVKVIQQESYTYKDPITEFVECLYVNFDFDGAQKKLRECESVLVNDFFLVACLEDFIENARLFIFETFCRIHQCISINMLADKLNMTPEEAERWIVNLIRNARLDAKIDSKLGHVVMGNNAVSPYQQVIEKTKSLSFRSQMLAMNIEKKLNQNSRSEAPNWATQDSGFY
UniProt P53350: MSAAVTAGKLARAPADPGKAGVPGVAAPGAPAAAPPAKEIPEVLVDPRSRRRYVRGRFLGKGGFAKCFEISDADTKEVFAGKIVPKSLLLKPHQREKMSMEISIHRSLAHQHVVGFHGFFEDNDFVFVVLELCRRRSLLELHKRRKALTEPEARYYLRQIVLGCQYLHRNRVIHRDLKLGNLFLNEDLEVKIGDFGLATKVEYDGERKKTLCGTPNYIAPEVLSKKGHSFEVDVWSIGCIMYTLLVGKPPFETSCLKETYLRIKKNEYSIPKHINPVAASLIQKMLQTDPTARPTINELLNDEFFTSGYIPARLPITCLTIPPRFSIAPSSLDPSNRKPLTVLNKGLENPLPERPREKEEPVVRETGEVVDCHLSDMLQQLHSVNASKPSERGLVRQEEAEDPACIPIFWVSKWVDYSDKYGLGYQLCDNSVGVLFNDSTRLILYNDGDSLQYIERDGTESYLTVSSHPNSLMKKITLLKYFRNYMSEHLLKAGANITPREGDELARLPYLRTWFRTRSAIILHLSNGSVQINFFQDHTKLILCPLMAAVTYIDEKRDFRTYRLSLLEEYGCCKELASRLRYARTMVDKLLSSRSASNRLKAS
UniProt P23258: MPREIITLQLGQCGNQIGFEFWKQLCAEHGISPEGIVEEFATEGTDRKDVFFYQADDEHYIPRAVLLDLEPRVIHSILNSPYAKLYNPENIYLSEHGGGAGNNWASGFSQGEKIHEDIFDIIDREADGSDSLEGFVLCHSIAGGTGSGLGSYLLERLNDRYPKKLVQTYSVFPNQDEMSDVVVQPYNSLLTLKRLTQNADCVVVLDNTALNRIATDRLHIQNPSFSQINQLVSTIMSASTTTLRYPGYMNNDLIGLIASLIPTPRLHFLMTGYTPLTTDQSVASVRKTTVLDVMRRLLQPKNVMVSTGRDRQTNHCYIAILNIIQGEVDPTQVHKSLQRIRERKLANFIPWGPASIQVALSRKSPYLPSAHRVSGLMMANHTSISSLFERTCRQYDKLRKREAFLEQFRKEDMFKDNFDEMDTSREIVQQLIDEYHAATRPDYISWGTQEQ

Sequences and labels used below:
T1: GFP-LGN (UniProt P81274)
T1 sequence: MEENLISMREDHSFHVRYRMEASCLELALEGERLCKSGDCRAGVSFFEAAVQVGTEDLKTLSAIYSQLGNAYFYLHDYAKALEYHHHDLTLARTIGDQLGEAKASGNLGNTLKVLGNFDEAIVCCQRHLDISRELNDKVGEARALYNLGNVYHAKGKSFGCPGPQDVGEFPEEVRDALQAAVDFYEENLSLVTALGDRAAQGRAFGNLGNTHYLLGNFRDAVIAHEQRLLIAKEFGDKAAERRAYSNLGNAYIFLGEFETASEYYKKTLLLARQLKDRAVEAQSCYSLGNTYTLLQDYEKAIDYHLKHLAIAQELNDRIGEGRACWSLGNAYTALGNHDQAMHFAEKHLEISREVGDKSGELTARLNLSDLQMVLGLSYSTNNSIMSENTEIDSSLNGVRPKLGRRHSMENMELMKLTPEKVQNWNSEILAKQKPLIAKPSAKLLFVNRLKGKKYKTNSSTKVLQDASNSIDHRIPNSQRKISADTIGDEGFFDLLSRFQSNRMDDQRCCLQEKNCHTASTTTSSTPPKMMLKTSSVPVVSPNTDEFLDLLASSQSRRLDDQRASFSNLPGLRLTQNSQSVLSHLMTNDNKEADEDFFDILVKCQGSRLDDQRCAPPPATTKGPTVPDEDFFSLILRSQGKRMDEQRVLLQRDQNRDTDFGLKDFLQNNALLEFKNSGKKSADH

B1: S100A11 (S100 Ca^2+-binding protein A11) (protein, UniProt P31949 1-105)
chain: MAKISSPTETERCIESLIAVFQKYAGKDGYNYTLSKTEFLSFMNTELAAFTKNQKDPGVLDRMMKKLDTNSDGQLDFSEFLNLIGGLAMACHDSFLKAVPSQKRT
B2: Serum Amyloid A-1 protein (SAA1) (protein, UniProt P0DJI8 19-122)
chain: RSFFSFLGEAFDGARDMWRAYSDMREANYIGSDKYFHARGNYDAAKRGPGGAWAAEVITDARENIQRFFGHGAEDSLADQAANEWGRSGKDPNHFRPAGLPEKY
B3: HAUS6 (protein, UniProt Q7Z4H7 1-955)
chain: MSSASVTAFEKEHLWMYLQALGFEPGPATIACGKIVSHTHLGVNMFDKLNRDAFHIISYFLFQVLDQSLTKEVFKFCWPPFDQKSDTEFRKHCCEWIKRISGECGSSFPQVVGSLFLSPGGPKFIHLMYHFARFVAMKYIKSNSKNSSHHFVETFNIKPQDLHKCIARCHFARSRFLQILQRQDCVTQKYQENAQLSVKQVRNLRSECIGLENQIKKMEPYDDHSNMEEKIQKVRSLWASVNETLMFLEKEREVVSSVLSLVNQYALDGTNVAINIPRLLLDKIEKQMFQLHIGNVYEAGKLNLLTVIQLLNEVLKVMKYERCQADQARLTVDLHYLEKETKFQKERLSDLKHMRYRIKDDLTTIRHSVVEKQGEWHKKWKEFLGLSPFSLIKGWTPSVDLLPPMSPLSFDPASEEVYAKSILCQYPASLPDAHKQHNQENGCRGDSDTLGALHDLANSPASFLSQSVSSSDRNSVTVLEKDTKMGTPKEKNEAISKKIPEFEVENSPLSDVAKNTESSAFGGSLPAKKSDPFQKEQDHLVEEVARAVLSDSPQLSEGKEIKLEELIDSLGSNPFLTRNQIPRTPENLITEIRSSWRKAIEMEENRTKEPIQMDAEHREVLPESLPVLHNQREFSMADFLLETTVSDFGQSHLTEEKVISDCECVPQKHVLTSHIDEPPTQNQSDLLNKKVICKQDLECLAFTKLSETSRMETFSPAVGNRIDVMGGSEEEFMKILDHLEVSCNKPSTNKTMLWNSFQISSGISSKSFKDNDFGILHETLPEEVGHLSFNSSSSSEANFKLEPNSPMHGGTLLEDVVGGRQTTPESDFNLQALRSRYEALKKSLSKKREESYLSNSQTPERHKPELSPTPQNVQTDDTLNFLDTCDLHTEHIKPSLRTSIGERKRSLSPLIKFSPVEQRLRTTIACSLGELPNLKEEDILNKSLDAKEPPSDLTR
B4: INSC (protein, UniProt Q1MX18 1-579)
chain: MRRPPGNGEAASEGPGGWGLWGVQESRRLCCAGHDRCKQALLQIGINMMALPGGRHLDSVTLPGQRLHLMQVDSVQRWMEDLKLMTECECMCVLQAKPISLEEDAQGDLILAGGPGPGDPLQLLLKRGWVISTELRRIGQKLAQDRWARVHSMSVRLTCHARSMVSEYSAVSRNSLKEMGEIEKLLMEKCSELSAVTERCLQVENEHVLKSMKACVSETLSMLGQHFGQLLELALTREVQALVRKIDASDNIYTTESTTGNLFSLTQEGAPLCRIIAKEGGVVALFKVCRQDSFRCLYPQALRTLASICCVEEGVHQLEKVDGVLCLADILTDNSHSEATRAEAAAVVAQVTSPHLPVTQHLSSFLESMEEIVTALVKLCQEASSGEVFLLASAALANITFFDTMACEMLLQLNAIRVLLEACSDKQRVDTPYTRDQIVTILANMSVLEQCASDIIQENGVQLIMGMLSEKPRSGTPAEVAACERVQQKAAVTLARLSRDPDVAREAVRLSCMSRLIELCRSPSERNSSDAVLVACLAALRRLAGVCPEGLQDSDFQQLVQPRLVDSFLLCSNMEESFV
B5: NUMB (protein, UniProt P49757 1-651)
chain: MNKLRQSFRRKKDVYVPEASRPHQWQTDEEGVRTGKCSFPVKYLGHVEVDESRGMHICEDAVKRLKAERKFFKGFFGKTGKKAVKAVLWVSADGLRVVDEKTKDLIVDQTIEKVSFCAPDRNFDRAFSYICRDGTTRRWICHCFMAVKDTGERLSHAVGCAFAACLERKQKREKECGVTATFDASRTTFTREGSFRVTTATEQAEREEIMKQMQDAKKAETDKIVVGSSVAPGNTAPSPSSPTSPTSDATTSLEMNNPHAIPRRHAPIEQLARQGSFRGFPALSQKMSPFKRQLSLRINELPSTMQRKTDFPIKNAVPEVEGEAESISSLCSQITNAFSTPEDPFSSAPMTKPVTVVAPQSPTFQANGTDSAFHVLAKPAHTALAPVAMPVRETNPWAHAPDAANKEIAATCSGTEWGQSSGAASPGLFQAGHRRTPSEADRWLEEVSKSVRAQQPQASAAPLQPVLQPPPPTAISQPASPFQGNAFLTSQPVPVGVVPALQPAFVPAQSYPVANGMPYPAPNVPVVGITPSQMVANVFGTAGHPQAAHPHQSPSLVRQQTFPHYEASSATTSPFFKPPAQHLNGSAAFNGVDDGRLASADRHTEVPTGTCPVDPFEAQWAALENKSKQRTNPSPTNPFSSDLQKTFEIEL
B6: Annexin A1 (ANXA1) (protein, UniProt P04083 1-346)
chain: MAMVSEFLKQAWFIENEEQEYVQTVKSSKGGPGSAVSPYPTFNPSSDVAALHKAIMVKGVDEATIIDILTKRNNAQRQQIKAAYLQETGKPLDETLKKALTGHLEEVVLALLKTPAQFDADELRAAMKGLGTDEDTLIEILASRTNKEIRDINRVYREELKRDLAKDITSDTSGDFRNALLSLAKGDRSEDFGVNEDLADSDARALYEAGERRKGTDVNVFNTILTTRSYPQLRRVFQKYTKYSKHDMNKVLDLELKGDIEKCLTAIVKCATSKPAFFAEKLHQAMKGVGTRHKALIRIMVSRSEIDMNDIKAFYQKMYGISLCQAILDETKGDYEKILVALCGGN

These are yes or no findings as the source states them, for the method shown. In cells and extracts the contact can be indirect. A yes stands for co-enrichment or nearness to the bait. Other partners may have been found. Tags and fused reporters may be left off the sequences shown.

The target of this assay is T1, GFP-LGN. Description: affinity purification with mass spectrometry.
For the molecule CLASP1 (from UniProt Q7Z460 1-1538), the binding entry was “binds”.
With “Cyclin B1 (CCNB1) (from UniProt P14635 1-433)”, the binding result is on record as “binds”.
As for “Dynein (DYNC1H1) (from UniProt Q14204 1-4646)”, the binding entry is given as “binds”.
The result for EIF3E (from UniProt P60228 1-445) reads “binds”; that for PAR3 (from UniProt Q8TEW0 1-1356), “binds”.
For the molecule PLK1 (from UniProt P53350 1-603), the binding entry is reported as “binds”.
As for “nuclear mitotic apparatus protein (NuMA) (from UniProt Q14980 1-2115)”, the binding entry was “binds”.
As for “ψ-tubulin (TUBG1) (from UniProt P23258 1-451)”, the binding entry is reported as “binds”.
Under B1 stands “binds”; under B2, “binds”; under B3, “binds”.
The result for B4 reads “binds”; that for B5, “binds”.
On to B6, for which the binding entry is on record as “binds”.
